PubChem BioAssay AID2685 (National Center for Advancing Translational Sciences (NCATS), 2010)
The whole screen tested about 320,000 compounds, of which about 2,100 (0.66%) were called active. Inconclusive results, whose numbers are uncertain, are shown with a selection of clear calls. Calls follow the shape of the dose curve; as a rule, active = well fitted inhibition curve with a large enough effect in the signal ratio, with a control signal flat (not every such curve was filed as active); inconclusive = small, poorly fitted or top-dose-only effect, or effect the other way, or a change in a side signal; inactive = flat fitted curve, though single readings scatter; the % refers to the signal ratio. Potencies of inconclusive entries are doubtful fits and often do not repeat.

Test: qHTS Assay for Lipid Storage Modulators in Drosophila S3 Cells
Conditions: BODIPY lipid droplet fluorescence, 18-24 h, cells fed with added oleic acid; lipid storage change, negative = inhibition: at 46.1 µM (top of the series) unless noted
Procedure, shortened: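 Laser-scanning cytometry quantifies lipid droplet accumulation (500–530 nm total intensity; droplet/cell object ratio) in oleic acid-fed (400 uM added) Drosophila S3 cells treated with a concentration series. 20 uM Triacsin C defined 100% inhibition.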
% is scaled to controls: 0 for no effect and ±100 for the full control effect; potency is read from the fitted curve at half-maximal effect.

Structure (SMILES) | Potency | lipid storage change, negative = inhibition
COC(=O)c1cc(OC)c(OC)cc1NC(=O)c1cc(-c2ccccc2)nc2ccccc12 | inconclusive: 1.16 µM [activator, full curve, poor fit] | 
Cc1ccc(C)c(S(=O)(=O)N2CCCOC2CNC(=O)C(=O)NCCCn2ccnc2)c1 (centres undefined) |  | inconclusive: 9.34%
O=c1[nH]c(Cc2ccccc2Cl)nc2ccccc12 |  | inconclusive: -28.5%
Nc1nc(COc2ccc(F)cc2)nc(N2CCCCC2)n1 |  | inconclusive: -25.7%
CCOc1ccc(-c2c(C)sc3nc[nH]c(=O)c23)cc1 |  | inconclusive: -30%
O=C(COc1ccc2ccccc2c1Br)NNC(=O)Nc1ccccc1 |  | inconclusive: -13.4%
O=C(O)COc1ccc2oc3c(c2c1)CCCC3 |  | inactive
Cc1onc(-c2ccccc2)c1C(=O)N1CCOC12CCN(c1cccc(F)n1)CC2 |  | inconclusive: 26.7%
CCc1ccccc1NS(=O)(=O)c1cccc2nsnc12 |  | inconclusive: -22.7%
O=C(CN1C(=O)NC2(CCCC2)C1=O)N1CCN(S(=O)(=O)c2ccc(Cl)c(C(F)(F)F)c2)CC1 | inconclusive: 4.11 µM [activator, partial curve] | 
CC(OC(=O)Cc1c[nH]c2ccccc12)C(=O)c1ccccc1 (centres undefined) | inconclusive: 13 µM [falling, partial curve] | 
O=C(c1ccc(-c2ccccc2)cc1)C1CCCN(C(=O)c2cncs2)C1 (centres undefined) |  | inconclusive: -4.11%
CCC(C)(C)NC(=O)C(c1ccc(OC)cc1)N(C(=O)CCC(=O)Nc1cc(C)on1)c1cc(OC)ccc1OC (centres undefined) |  | inconclusive: 51.1%
Cc1nnc(SCC(=O)Nc2cccc([N+](=O)[O-])c2)n1CC1CCCO1 (centres undefined) | inconclusive: 0.366 µM [activator, partial curve] | 
O=C(Cn1cc(C(=O)C(F)(F)F)c2ccccc21)N1CCOCC1 | inconclusive: 0.259 µM [falling, single point] | 
O=C(COc1ccc([N+](=O)[O-])cc1)Nn1cnnc1 |  | inconclusive: -1.39%
O=C(CNC(=O)c1ccco1)NCC(=O)OCc1ccc(Cl)cc1Cl |  | inconclusive: 20.5%
Cc1nc(-c2ccc(Cl)cc2)sc1C(=O)CBr |  | inconclusive: 6.59%
CCOC(=O)C(C)On1c(-c2ccccc2)nc2ccc([N+](=O)[O-])cc21 (centres undefined) | inconclusive: 0.103 µM [activator, full curve] | 
CC1=C(C(=O)N(C)CCC#N)C2(CCCCC2)OC1=O |  | inconclusive: 3.94%
CC(=O)Nc1ccc(-c2csc(NC(=O)C3=COCCO3)n2)cc1 |  | inactive: -16.5% [at 0.0737 µM]
O=C(c1ccco1)N1CCN(Cc2nnc(-c3ccccc3)o2)CC1 |  | inconclusive: 13.5%
Cc1cc(C)c(NC(=S)NC(NC(=O)c2ccccc2)C(Cl)(Cl)Cl)c(C)c1 (centres undefined) | inconclusive: 29.1 µM [falling, single point] | 
O=C1C2C3CCC(O3)C2C(=O)N1c1cc(OCC(F)F)cc([N+](=O)[O-])c1 (centres undefined) |  | inconclusive: 384%
Cc1ccc2c(c1)C(=NC1CCCCC1)c1cc3ccccc3nc1-2 |  | inconclusive: 1.52%
O=C(OCC(O)CO)c1ccccc1Nc1ccnc2cc(Cl)ccc12 (centres undefined) |  | inconclusive: -24.5%
COCCN(C(=O)CNC(=O)c1ccco1)C(C(=O)NC1CCCCC1)c1cccc(OC)c1 (centres undefined) | inconclusive: 11.6 µM [activator, partial curve] | 

Looked up above.
lipid storage change, negative = inhibition, CC(=O)Nc1ccc(-c2csc(NC(=O)C3=COCCO3)n2)cc1 is entered as inactive: -16.5% [at 0.0737 µM]
Potency, Cc1cc(C)c(NC(=S)NC(NC(=O)c2ccccc2)C(Cl)(Cl)Cl)c(C)c1 (centres undefined) is entered as inconclusive: 29.1 µM [falling, single point]
lipid storage change, negative = inhibition, Cc1ccc2c(c1)C(=NC1CCCCC1)c1cc3ccccc3nc1-2 is entered as inconclusive: 1.52%
Potency, Cc1nnc(SCC(=O)Nc2cccc([N+](=O)[O-])c2)n1CC1CCCO1 (centres undefined) is entered as inconclusive: 0.366 µM [activator, partial curve]
lipid storage change, negative = inhibition, O=c1[nH]c(Cc2ccccc2Cl)nc2ccccc12 is entered as inconclusive: -28.5%

Further entries:

Structure (SMILES) | Potency | lipid storage change, negative = inhibition
CCOC(=O)c1c2ccc(OCC(=O)NN)cc2n2ccccc12 |  | inconclusive: -13.9%
CCOc1ccccc1NC(=O)CSc1nc2ccccc2nc1N1CCCC1 |  | inconclusive: 19.5%
Cc1nn(C)cc1C(C)Nc1nc2nonc2nc1N1CCCCC1 (centres undefined) |  | inconclusive: -13.1%
CSc1ccccc1NC(=O)CSc1nncs1 |  | inconclusive: 7.17%
COc1ccc(NC(=O)CSc2nncs2)cc1OC |  | inconclusive: 11.2%
CCN(CC(=O)NCc1ccc(F)cc1)C(=O)C(C)Oc1cccc(Cl)c1 (centres undefined) | inconclusive: 0.651 µM [rising, partial curve] | 
CC(OC(=O)Cc1ccccc1F)C(=O)Nc1ccc(Cl)cn1 (centres undefined) |  | inconclusive
CCOCC(=O)Nc1cc(C(=O)OC)cc(C(=O)OC)c1 |  | inconclusive: 17.9%
Clc1ccc(-c2c[nH]c3ccccc23)nn1 |  | inconclusive: -7.87% [at 9.22 µM]
Cc1ccc(OCC(=O)Nc2nc(C)c(Cl)cc2Cl)c([N+](=O)[O-])n1 | inconclusive: 8.2 µM [activator, partial curve, poor fit] | 
CCOc1ccc(/C=N/NC(=O)c2ccccc2NC(=O)c2ccc(OC)cc2)cc1 |  | inconclusive: 6.61%
Cc1ccc(-c2nnc(SCC(=O)NCC3CCCO3)n2C)cc1 (centres undefined) |  | inconclusive: 15.5%
CCOC(=O)C1=NNC(C(=O)c2ccccc2)C1c1ccc(Cl)cc1 (centres undefined) |  | inconclusive: 21.7%
COc1ccc(/C=N/NC(=O)CC(=O)NCc2cccnc2)cc1 |  | inconclusive: -19.6%
CCOC(=O)N1CCN(S(=O)(=O)c2ccc(C(=O)Nc3nc4ccc(F)cc4s3)cc2)CC1 |  | inconclusive: 49.3%
CCOc1ccc(-c2nc(C#N)c(N3CCN(Cc4ccccc4)CC3)o2)cc1 |  | inconclusive: -20.3%
Cc1cccn2c(=O)c(/C=C3\SC(=S)N(CC(C)C)C3=O)c(NCCCOC(C)C)nc12 |  | inconclusive: -46.5%
O=C1CC(c2ccccc2)CC(=O)C1Sc1ccc(Cl)cc1 (centres undefined) |  | inconclusive: -6.2%
CC(C)N(C(=O)CSc1ncnc2sc(-c3ccccc3)cc12)C(C)C | inconclusive: 0.103 µM [activator, single point] | 
O=C(Nc1ccccc1)Nc1nnc(Cc2ccc(F)cc2)s1 | active: 0.103 µM | 
O=C(COC(=O)c1cc(S(=O)(=O)N2CCOCC2)ccc1Cl)NC1CC1 | inconclusive: 0.82 µM [activator, single point] | 
CCc1ccc(S(=O)(=O)NC(CC(=O)O)c2ccccc2)cc1 (centres undefined) |  | inconclusive: 2.56%
COc1cccc(NC(=O)N2CCCC2C(=O)NC2CC2)c1 (centres undefined) |  | inconclusive: -78.1%
Cc1csc2nc(O)c(C(=O)NCCN3CCOCC3)c(=O)n12 |  | inconclusive
CC(C(=O)O)c1ccc(-c2ccccc2)c(F)c1 (centres undefined) |  | inconclusive: -9.41%
N#CC1(C#N)CC(C=O)=C(N)C1(C#N)CC(=O)c1ccc(F)cc1 (centres undefined) |  | inconclusive: -2.31%
O=C1CC(c2cccc(F)c2)c2c(c3ccccc3[nH]c2=O)O1 (centres undefined) |  | inconclusive: -140%

Structure (SMILES) | Potency | lipid storage change, negative = inhibition
CCCOC(c1ccccc1)(c1ccccc1)C(Oc1nc(C)cc(C)n1)C(=O)O (centres undefined) | inconclusive: 3.66 µM [activator, full curve] | 
COc1ccc(C2CCCN2C(=S)Nc2ccc(C)c(C)c2)cc1OC (centres undefined) |  | inconclusive: 7.2%
COc1ccccc1C(=O)NC(=O)COC(=O)/C(=C/c1ccccc1)NC(C)=O | inconclusive: 32.6 µM [falling, single point] | 
COc1ccc(C2CC(c3ccccc3)=NN2C(=O)COC(=O)c2cc(S(=O)(=O)N3CCOCC3)ccc2F)cc1 (centres undefined) | inconclusive: 0.82 µM [falling, single point] | 
COc1ccc(S(=O)(=O)N(C)c2ccc(C(=O)NC3CCCC3)cc2)cc1 |  | inconclusive: -23.3%
O=S(=O)(c1ccc(-c2ccon2)s1)N1CCN(CCN2CCOCC2)CC1 |  | inconclusive: -24.8%
N#CCCn1nc(-c2ccccc2)cc1Nc1ccccc1NC(=O)c1cccs1 |  | inconclusive: 6.29%
COc1ccc(C(=O)Oc2c(OC)cc(C(=S)N3CCOCC3)cc2OC)cc1OC |  | inconclusive: -13%
N#CCCN1CCN(S(=O)(=O)c2ccc(S(=O)(=O)N3CCCCCC3)cc2)CC1 |  | inconclusive: -3.53%
CCN(CC(=O)Nc1ccccc1C(F)(F)F)C(=O)c1ccc2c(=O)n3c(nc2c1)CCC3 | inconclusive: 8.2 µM [falling, partial curve, poor fit] | 
COc1ccc(N2CCN(C(=O)CNC(=O)c3ccc(Br)o3)CC2)cc1 |  | inconclusive: 25.9%
Cc1cccc(C(C)C)c1NC(=O)c1ccc(COc2ccc3c(C)cc(=O)oc3c2)cc1 |  | inconclusive: 37.3%
COc1ccc(NC(=O)c2cc(-c3ccc(OC)c(OC)c3)nc3ccccc23)c(OC)c1 |  | inconclusive: -1.7%
O=C1CN(S(=O)(=O)c2ccc(Br)cc2)c2ccccc2N1 |  | inconclusive: -8.26%
CCOC(=O)CN1NC2(CCC(C)CC2)NC1=S (centres undefined) | active: 18.4 µM | 
CC(=O)Nc1cccc(NC(=O)CSc2nnc3ccc(-c4cccnc4)nn23)c1 |  | inconclusive: 51.6% [at 0.0737 µM]
CC(C)c1ccc(NC2CCCN(C(=O)c3ccco3)C2)cc1 (centres undefined) | inconclusive: 20.6 µM [activator, partial curve] | 
CC(Oc1ccc(-c2nnco2)cc1)C(=O)N1CCOCC1 (centres undefined) |  | inactive
COc1ccc(/C=N/n2c(SC)nnc2-c2ccccc2)cc1C | inconclusive: 0.651 µM [rising, single point] | 
CCCc1ccc(-c2cc(C(=O)NCCc3ccc(S(N)(=O)=O)cc3)c3ccccc3n2)cc1 |  | inconclusive: 40.5%
O=C1Nc2ccccc2C1(O)c1ccccc1 (centres undefined) |  | inconclusive: 7.93%
COc1ccccc1NC(=O)CS(=O)(=O)c1cccc2nsnc12 |  | inconclusive: 58.9%
O=C(NC1CCCC1)c1cc(-c2ccccc2Cl)on1 | inconclusive: 0.13 µM [activator, single point] | 
O=S1(=O)CCO[C@H]2Cc3ccccc3[C@H]2N1Cc1ccc(F)cc1 |  | inconclusive: 3.36%
NC(=O)c1cn(Cc2c(F)cccc2F)nn1 |  | inconclusive: -0.774%
